Earlier results in US20200224165A1, “METHODS AND COMPOSITIONS FOR REJUVENATION” (priority 2016, published 2020).
“Also recorded” adds a separate entry of the source. At least one compound was matched to its structure with a doubt left.

System: mice

Compound: CO[C@H]1C[C@@H]2CC[C@@H](C)[C@@](O)(O2)C(=O)C(=O)N2CCCC[C@H]2C(=O)O[C@H]([C@H](C)C[C@@H]2CC[C@@H](O)[C@H](OC)C2)CC(=O)[C@H](C)/C=C(\C)[C@@H](O)[C@@H](OC)C(=O)[C@H](C)C[C@H](C)/C=C/C=C/C=C/1C [rapamycin]
- effect on lifespan and healthspan: extend mean and maximum lifespans, as well as healthspan; also recorded: extend lifespan as well as healthspan
